In EP2853898A1 one finds binding data, which are given here for one substance.

The assay concerns the target T1, myostatin ligand (human) (UniProt O14793).
T1 sequence: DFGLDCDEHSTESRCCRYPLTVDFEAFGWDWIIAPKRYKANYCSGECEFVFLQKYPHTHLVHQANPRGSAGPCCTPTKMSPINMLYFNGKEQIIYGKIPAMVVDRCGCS
Nature of the assay: co-elution in SEC fractions 30-31 (66-100 kDa), shown by IRMA, Western blots and acid release in the reporter assay. For orientation: A western blot detects proteins with antibodies after separation by electrophoresis.

These are yes or no findings as the source states them, for the method shown. In cells and extracts the contact can be indirect. Some entries that bind do so weakly or less than the wild type.

For the substance “myostatin prodomain (from UniProt O14793 24-266)”, the binding result is recorded as “binds”.
